Over roughly 33,000 sequences, “E-score (-0.5 to 0.5)” has its median near -0.016; the highest 2% begin near 0.3. This is one part of the list.
The sequences below were run against T1, Yer184c (UniProt P39961) (assay: PBM E-score (8-mer binding enrichment) (E-score (-0.5 to 0.5)); higher = stronger / more preferred TF binding). Settings: protein concentration: 100 nM; construct: GST-full length.
T1 sequence: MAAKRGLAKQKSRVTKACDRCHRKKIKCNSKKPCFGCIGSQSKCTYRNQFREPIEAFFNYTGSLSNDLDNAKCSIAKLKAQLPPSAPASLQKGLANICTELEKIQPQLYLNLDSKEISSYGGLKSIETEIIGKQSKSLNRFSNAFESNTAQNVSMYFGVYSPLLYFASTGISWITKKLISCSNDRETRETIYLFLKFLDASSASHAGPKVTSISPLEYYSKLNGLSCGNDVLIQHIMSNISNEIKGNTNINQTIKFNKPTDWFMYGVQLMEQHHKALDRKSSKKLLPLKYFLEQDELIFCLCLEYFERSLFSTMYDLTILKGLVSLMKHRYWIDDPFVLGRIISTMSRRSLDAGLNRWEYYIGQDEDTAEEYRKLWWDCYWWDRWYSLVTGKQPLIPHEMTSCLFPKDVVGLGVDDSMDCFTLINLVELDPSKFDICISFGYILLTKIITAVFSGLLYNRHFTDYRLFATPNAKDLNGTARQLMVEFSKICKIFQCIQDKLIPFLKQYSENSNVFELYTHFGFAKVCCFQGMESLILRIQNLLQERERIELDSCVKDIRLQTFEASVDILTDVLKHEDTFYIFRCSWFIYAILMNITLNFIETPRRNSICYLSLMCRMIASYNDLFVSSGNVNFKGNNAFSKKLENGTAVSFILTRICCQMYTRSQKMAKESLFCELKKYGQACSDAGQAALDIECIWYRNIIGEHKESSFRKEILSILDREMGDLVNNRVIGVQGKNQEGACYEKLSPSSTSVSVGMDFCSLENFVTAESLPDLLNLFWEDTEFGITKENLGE
Summary of the method: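 E-scores (a modified Wilcoxon-Mann-Whitney statistic) were assigned by the Universal PBM Analysis Suite to every ungapped eight-base word pooled with its reverse complement. The input came from universal all-10-mer Agilent arrays made double-stranded by primer extension and probed with GST-tagged yeast transcription factors at about 100-200 nM. Fluorescent anti-GST detected bound protein, and masliner normalised the scans.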

| Sequence | PBM E-score |
| --- | --- |
| ATCGCACG | -0.143 |
| GAGCGATC | -0.121 |
| TCGGCAAA | 0.239 |
| AAGCGCGA | -0.0153 |
| GACATAGC | 0.078 |
| AATCCACA | -0.0138 |
| CCGTCAAC | 0.0224 |
| AGGTTGGG | -0.184 |
| CACCCCAG | -0.251 |
| TCACCCCA | -0.0252 |
| AGTATGAC | 0.0364 |
| AATATCCA | 0.17 |
| CCGTGATA | 0.147 |
| AAAATGTG | -0.0563 |
| GAGTGGAC | -0.109 |
| GCGATGAC | -0.147 |
| ATATAGAT | 0.236 |
| GTCGTGTA | 0.0195 |
| AACCCACG | -0.244 |
| TAGCGTCA | -0.223 |
| CAGCCCCG | -0.133 |
| CCATAGCC | -0.0766 |
| CCGGCCGA | 0.431 |
| CACTCTTC | -0.0607 |
| ATCGGCAT | 0.267 |

| Sequence | PBM E-score |
| --- | --- |
| GTTAATGA | 0.126 |
| AAGACATC | -0.263 |
| CGACAGCC | -0.1 |
| CACGCAGG | -0.0695 |
| ATAGCTGA | -0.0194 |
| GATTTCCA | 0.0816 |
| ACCCTCAC | -0.152 |
| AAACCAGG | -0.178 |
| CGCACCTC | -0.103 |
| GGAAGATA | 0.0905 |
| AAGCTAGA | -0.0135 |
| CAGTTGCA | -0.0676 |
| CATGTTAC | -0.0321 |
| GTAGCAAA | 0.0314 |
| CGTAAAAC | 0.0466 |
| GTAGCCTA | -0.284 |
| CGACATTA | 0.221 |
| GTAGCGAC | -0.241 |
| GCATTGAA | 0.203 |
| AGCCAGAC | -0.0475 |
| GGCCTAGA | -0.258 |
| AGGTAGTC | -0.205 |
| ACTCTGAC | -0.106 |
| ATGATTTC | 0.161 |
| GGTCCATA | -0.186 |

| Sequence | PBM E-score |
| --- | --- |
| ATCCTGGA | -0.0345 |
| GTGAAACA | 0.0428 |
| CCCCCAGG | -0.345 |
| AATGGCGT | -0.118 |
| AAATTCCC | -0.0964 |
| AAATGTCC | 0.00053 |
| GCGCTACA | 0.0339 |
| GGGGGATA | -0.291 |
| AAGTAAGA | -0.147 |
| AAGGCACG | -0.0497 |
| GACAGGAC | -0.0187 |
| ACTCATCG | -0.0499 |
| CGTGTCCC | -0.00254 |
| GGCCAGGA | -0.174 |
| CATCTTTC | 0.0475 |
| ACACCCAT | -0.152 |
| GCTAACGA | 0.0862 |
| CATAAATG | -0.119 |
| AACTTACA | -0.0611 |
| CTTAGCGA | 0.0683 |
| GCGTTGCC | -0.0447 |
| GACCATTA | 0.0247 |
| ACTTACAC | -0.152 |
| AGCGCCTG | -0.113 |
| CAATGTCG | -0.0173 |

6 successive entries from above, for reference:

| Sequence | PBM E-score |
| --- | --- |
| AAGCTAGA | -0.0135 |
| CAGTTGCA | -0.0676 |
| CATGTTAC | -0.0321 |
| GTAGCAAA | 0.0314 |
| CGTAAAAC | 0.0466 |
| GTAGCCTA | -0.284 |

(cont.)

| Sequence | PBM E-score |
| --- | --- |
| AATGAGTC | -0.126 |
| TACCGAAA | 0.204 |
| CCTTACAC | -0.17 |
| TACACAGA | -0.0325 |
| AACAAGCG | 0.0886 |
| ATGCTTAG | -0.101 |
| AAGAAGCT | 0.179 |
| GATAGGCA | -0.103 |
| CAAACTCC | 0.125 |
| TGAGCTAA | 0.0351 |
| AGAGACAA | -0.00864 |
| AACATGGT | -0.165 |
| GGAGCTAA | -0.00462 |
| CGCGTGAA | 0.215 |
| ATGGTCAG | 0.0701 |
| TATGAAAA | 0.178 |
| GAACTGGA | 0.188 |
| AGGATTAA | 0.0521 |
| GGACGCCA | -0.224 |
| GCCGACCA | 0.0382 |
| CATAGGGG | -0.368 |
| CGAGCCGC | 0.251 |
| ATCCTAAC | 0.0876 |
| AGGTAAGG | -0.226 |
| ACAAATGA | 0.0261 |

| Sequence | PBM E-score |
| --- | --- |
| AGACTACT | 0.0561 |
| CTCCTAAA | -0.284 |
| CAATATTA | 0.133 |
| TAGGAAAA | -0.0497 |
| ACCGCTTA | -0.144 |
| AATGAAGC | 0.0451 |
| CCCTGTCC | -0.316 |
| GACTTGAC | 0.00358 |
| CCGTCTTA | 0.00478 |
| AATCCCCC | -0.307 |
| GCGGCAAA | 0.107 |
| ATGTAATC | -0.0318 |
| AATCGCTG | -0.00297 |
| CGAATGTA | -0.151 |
| CAGCAAGA | 0.0971 |
| CGCCATTA | -0.174 |
| CTGCAAAC | -0.0687 |
| AGAGATTG | 0.0519 |
| AGAGCTGA | -0.155 |
| ATTGTTCC | 0.267 |
| AGGCGGAG | 0.0329 |
| AGTCGGCA | 0.142 |
| GCGCAGCC | -0.0557 |
| AAGCTCGG | 0.303 |
| CACACGTC | -0.199 |

| Sequence | PBM E-score |
| --- | --- |
| AAGTCACT | -0.144 |
| ACTCCCGG | 0.244 |
| CAGATGTC | 0.0249 |
| AACGGAGC | -0.0449 |
| GGCTGCCA | -0.0759 |
| CCCCGTAC | -0.345 |
| ACCCATGC | -0.15 |
| TCATCAGA | -0.159 |
| AGACACCG | -0.0308 |
| GGTGGTAC | -0.151 |
| TATTTCGA | 0.278 |
| AACCAACG | -0.0237 |
| GATGGAGA | -0.0873 |
| CCTCCCTA | -0.303 |
| CTCAGCTC | -0.11 |
| ATGACAGC | -0.0608 |
| GAGGAAGC | -0.125 |
| CTCTACCC | -0.28 |
| ACGGGGCC | -0.206 |
| CTCGATCC | 0.00106 |
| CTTTAAGC | 0.168 |
| AATACTAG | 0.0947 |
| CGACCAAC | 0.0262 |
| AAGATCTC | 0.0449 |
| GGGAACAC | 0.221 |

| Sequence | PBM E-score |
| --- | --- |
| GTGGAAAA | -0.0506 |
| GTGCGAAA | 0.0385 |
| AGACCACG | -0.274 |
| AAACAAGA | 0.145 |
| AGGACTTC | -0.00503 |
| AGCAGCGC | -0.177 |
| GGTGAGTA | -0.154 |
| CAAAACCC | 0.0404 |
| AGTAGCAA | 0.136 |
| CGCGCCAC | -0.195 |
| AGACCCAA | -0.134 |
| CCAGCGTC | -0.238 |
| CACTCATC | -0.0372 |
| GACAATGC | 0.0484 |
| GAGATCCA | -0.00309 |
| CGCGATCC | 0.0446 |
| TAGTTATA | 0.0764 |
| ACACGAAA | 0.126 |
| GTCAATTA | 0.0244 |
| ACGGTGCG | 0.0873 |
| GGCAACAA | 0.029 |
| AGAGATTC | 0.0419 |

— the supplement of paper PMC3334620
